PubChem BioAssay AID686938 | Drosophila RNAi Screening Center – 2013

Test: 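Knock-downs reducing store-operated calcium influx in Drosophila cells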 (primary screen)
Cells: Drosophila S2R+ cells
Knock-down reagent: long dsRNA against Drosophila genes, about 0.25 µg dsRNA per well, roughly 10,000 cells
Duration: 5 days of knock-down before the calcium assay
Conditions: thapsigargin (SERCA pump blocker) to empty calcium stores; entry signal taken 4 min after adding it
Measured: 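Duplicate raw fluo-4 intensities per well from a plate reader, at rest and four minutes after thapsigargin emptied calcium stores; entry-to-rest ratio filled for only some wells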
Reading the numbers: calcium entry signal: higher = stronger calcium signal after store depletion; entry to resting ratio: higher = more calcium entry relative to resting level; resting calcium signal: higher = higher resting calcium signal
Units: calcium entry signal in fluorescence units; resting calcium signal in fluorescence units
Rule for the call: 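Called when the plate z-score of the entry-to-rest ratio, mean of duplicates, falls below −3; wells with low overall dye signal (Fmax z below −2) or more than five off-targets excluded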
Calls: active = strongly reduced calcium entry; inactive = no strong reduction
The screen tested about 23,000 reagents; below is a random part of those that have a named target and a result. In the full data, 75 (0.33%) got an active call. 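Raw plate signals without normalisation; calls rest on plate z-scores that were not deposited; ratio present for only 364 wells.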 Entries without a mark were called inactive. The record does not give: the dose of the treatment.

| gene knocked down | amplicon | calcium entry signal, replicate 1 | calcium entry signal, replicate 2 | entry to resting ratio | resting calcium signal, replicate 1 | resting calcium signal, replicate 2 |
| --- | --- | --- | --- | --- | --- | --- |
| CG16813 | DRSC02520 | 4.98e7 | 3.43e7 | – | 2.19e7 | 1.47e7 |
| CG3987 | DRSC15531 | 3.42e7 | 4.90e7 | – | 1.49e7 | 2.00e7 |
| Dmtn | DRSC12513 | 3.92e7 | 4.71e7 | – | 1.60e7 | 1.89e7 |
| Osi19 | DRSC12569 | 3.67e7 | 3.65e7 | – | 1.84e7 | 1.75e7 |
| COX8 | DRSC11814 | 3.01e7 | 4.65e7 | – | 1.45e7 | 2.07e7 |
| CG15638 | DRSC01875 | 4.11e7 | 2.66e7 | – | 1.85e7 | 1.17e7 |
| CG3529 | DRSC10369 | 5.70e7 | 4.50e7 | – | 3.55e7 | 1.79e7 |
| fkh | DRSC16949 | 3.93e7 | 5.72e7 | – | 1.96e7 | 2.48e7 |
| Psn | DRSC11743 | 2.44e7 | 4.34e7 | – | 1.16e7 | 1.71e7 |
| Ir64a | DRSC09759 | 3.27e7 | 4.65e7 | – | 1.66e7 | 2.32e7 |
| Ir64a | DRSC09760 | 2.84e7 | 4.79e7 | – | 1.38e7 | 2.11e7 |
| CG3330 | DRSC15477 | 5.02e7 | 6.03e7 | – | 2.20e7 | 2.60e7 |
| Not3 | DRSC04908 | 3.94e7 | – | – | 2.16e7 | – |
| CG33768 | DRSC11715 | 2.96e7 | 4.97e7 | – | 1.48e7 | 2.19e7 |
| Spn28Dc | DRSC03029 | 2.35e7 | 2.94e7 | – | 1.18e7 | 1.40e7 |
| lncRNA:CR31386 | DRSC22769 | 5.29e7 | 3.38e7 | – | 2.71e7 | 1.69e7 |
| lncRNA:CR31386 | DRSC23186 | 4.53e7 | 4.15e7 | – | 2.40e7 | 1.76e7 |
| magu | DRSC06832 | 3.99e7 | 3.38e7 | – | 1.68e7 | 1.62e7 |
| CG5984 | DRSC15930 | 3.91e7 | 6.15e7 | – | 1.90e7 | 2.56e7 |
| IleRS | DRSC11667 | 2.23e7 | 3.25e7 | – | 1.18e7 | 2.57e7 |
| CG11786 | DRSC14389 | 4.33e7 | 5.88e7 | – | 2.06e7 | 2.41e7 |
| Mlc-c | DRSC18683 | 2.66e7 | 2.73e7 | – | 1.23e7 | 1.32e7 |
| CG12546 | DRSC11676 | 2.16e7 | 3.38e7 | – | 1.12e7 | 1.67e7 |
| tefu | DRSC16060 | 3.56e7 | 4.60e7 | – | 1.73e7 | 7.07e7 |
| RpS10a | DRSC14161 | 4.07e7 | 4.89e7 | – | 2.00e7 | 2.22e7 |
| Gbeta76C | DRSC11174 | 2.67e7 | 3.76e7 | – | 1.25e7 | 2.12e7 |
| CG31974 | DRSC00522 | 3.88e7 | 3.72e7 | – | 1.99e7 | 1.76e7 |
| by | DRSC16482 | 3.14e7 | 2.97e7 | – | 1.57e7 | 1.60e7 |
| CG43155 | DRSC19642 | 3.11e7 | 8.82e7 | – | 1.47e7 | 3.46e7 |
| CG43155 | DRSC19777 | 3.07e7 | 6.22e7 | – | 1.58e7 | 2.69e7 |
| mei-9 | DRSC18792 | 3.12e7 | 4.66e7 | – | 1.55e7 | 2.16e7 |

9 entries from above, sorted by “resting calcium signal, replicate 1”, low to high:
| gene knocked down | amplicon | calcium entry signal, replicate 1 | calcium entry signal, replicate 2 | entry to resting ratio | resting calcium signal, replicate 1 | resting calcium signal, replicate 2 |
| --- | --- | --- | --- | --- | --- | --- |
| Psn | DRSC11743 | 2.44e7 | 4.34e7 | – | 1.16e7 | 1.71e7 |
| Spn28Dc | DRSC03029 | 2.35e7 | 2.94e7 | – | 1.18e7 | 1.40e7 |
| Ir64a | DRSC09760 | 2.84e7 | 4.79e7 | – | 1.38e7 | 2.11e7 |
| CG33768 | DRSC11715 | 2.96e7 | 4.97e7 | – | 1.48e7 | 2.19e7 |
| Ir64a | DRSC09759 | 3.27e7 | 4.65e7 | – | 1.66e7 | 2.32e7 |
| fkh | DRSC16949 | 3.93e7 | 5.72e7 | – | 1.96e7 | 2.48e7 |
| Not3 | DRSC04908 | 3.94e7 | – | – | 2.16e7 | – |
| CG3330 | DRSC15477 | 5.02e7 | 6.03e7 | – | 2.20e7 | 2.60e7 |
| CG3529 | DRSC10369 | 5.70e7 | 4.50e7 | – | 3.55e7 | 1.79e7 |

Next results follow.
| gene knocked down | amplicon | calcium entry signal, replicate 1 | calcium entry signal, replicate 2 | entry to resting ratio | resting calcium signal, replicate 1 | resting calcium signal, replicate 2 |
| --- | --- | --- | --- | --- | --- | --- |
| AstC-R1 | DRSC10799 | 3.20e7 | 4.87e7 | – | 1.66e7 | 1.73e7 |
| Faf2 | DRSC03325 | 3.87e7 | – | – | 1.63e7 | – |
| ND-B14 | DRSC07029 | 4.43e7 | 4.52e7 | – | 2.01e7 | 1.70e7 |
| CG31715 | DRSC21607 | 2.75e7 | 3.05e7 | – | 1.51e7 | 1.49e7 |
| CG15760 | DRSC19725 | 3.56e7 | 4.35e7 | – | 1.80e7 | 2.18e7 |
| fd59A | DRSC04685 | 3.74e7 | – | – | 1.87e7 | – |
| pins | DRSC17043 | 2.25e7 | 3.66e7 | – | 1.25e7 | 1.60e7 |
| CG9616 | DRSC16518 | 2.16e7 | 2.72e7 | – | 1.16e7 | 4.35e7 |
| RanGAP | DRSC22003 | 2.15e7 | 4.03e7 | – | 1.10e7 | 1.99e7 |
| Ugt49B2 | DRSC16049 | 4.41e7 | 4.17e7 | – | 5.39e7 | 1.85e7 |
| pyx | DRSC08510 | 3.50e7 | 4.44e7 | – | 1.86e7 | 1.96e7 |
| pyx | DRSC08511 | 3.28e7 | 3.99e7 | – | 1.70e7 | 1.98e7 |
| mRpL35 | DRSC14586 | 4.72e7 | 6.22e7 | – | 3.49e7 | 2.39e7 |
| fs(1)N | DRSC18578 | 5.18e7 | 4.43e7 | 2.1 | 2.41e7 | 1.95e7 |
| CG15705 | DRSC06576 | 4.51e7 | 4.61e7 | – | 1.95e7 | 2.17e7 |
| Ubc10 | DRSC07568 | 3.71e7 | 4.19e7 | – | 1.48e7 | 1.99e7 |
| CG8372 | DRSC03086 | 4.26e7 | – | – | 2.76e7 | – |
| CG1368 | DRSC19537 | 2.39e7 | 2.91e7 | – | 1.04e7 | 1.32e7 |
| dpr17 | DRSC12885 | 2.84e7 | 3.80e7 | – | 1.71e7 | 1.84e7 |
| dpr17 | DRSC14957 | 2.83e7 | 2.68e7 | – | 1.48e7 | 1.35e7 |
| dpr17 | DRSC14958 | 2.62e7 | 2.57e7 | – | 1.21e7 | 1.37e7 |
| DIP-alpha | DRSC17891 | 4.31e7 | 2.73e7 | – | 1.99e7 | 1.46e7 |
| DIP-alpha | DRSC17892 | 4.56e7 | 4.87e7 | 1.8 | 2.59e7 | 2.86e7 |
| DIP-alpha | DRSC23275 | 4.20e7 | 4.13e7 | – | 1.97e7 | 1.79e7 |
| mi | DRSC04498 | 4.16e7 | – | – | 2.07e7 | – |
| Crtp | DRSC04604 | 4.20e7 | 5.25e7 | – | 2.21e7 | 2.25e7 |
| CG9961 | DRSC00738 | 4.04e7 | 4.83e7 | – | 1.97e7 | 2.17e7 |
| CG9961 | DRSC23343 | 3.19e7 | 3.48e7 | – | 1.87e7 | 1.59e7 |
